Results as given in PubChem BioAssay AID1508600 (Functional Genomics Laboratory (NCATS/FGL), 2020).
About 3,700 (7%) of roughly 53,000 sequences were called active.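 Rule for the calls: active = gene knockdowns whose robust z-score for IL-1 alpha signal is at least 2 or at most -2, so actives lie on both sides; inactive = the rest.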 The list shows a part of the results.

Assay: Components of the Cytosolic LPS Sensing Pathway: Gene Identification via Genome-wide siRNA Screen
Conditions: RAW264.7 macrophages, IL-1a HTRF, actives lie on both sides, screened at 100 nM (by protocol), cells primed 5 h with Pam3CSK4 first
Source text: Non-canonical inflammasome activation by cytosolic LPS is a critical component of the host response to Gram-negative bacterial infection, however we lack a comprehensive understanding of the cellular processes that control this pathway. Here we describe a genome-wide siRNA screen to identify genes regulating the mouse macrophage IL-1 alpha response to cytosolic LPS.
RAW264.7 cells were maintained in complete DMEM media, comprising DMEM with 4.5 g/L glucose, 10% FBS (Gemini Bio-Products, West Sacramento, CA), 2 mM Glutamine (Lonza) and 20 mM HEPES (Lonza), hereafter complete DMEM.
The RNAi screen was conducted in 384-well format using the Ambion Silencer Mouse Genome siRNA Library (#4391425), which consists of three unique, nonoverlapping, nonpooled siRNAs for each of 17,000 gene targets. siRNA reagents ([…]) were stamped into 384-well white flat-bottom microplates (Corning, 3570) using a Velocity11 VPrep liquid handling system (Agilent) integrated into a BioCel robotic platform (Agilent) in columns 1-22, leaving columns 23-24 empty for negative (Ambion, Negative control #1) and positive (mouse Casp4) controls, respectively. The median value of each plate's negative control column was used to normalize sample wells, and the positive control was used to assess transfection efficiency and assay performance.
Lipofectamine RNAiMAX Transfection Reagent ([…]; Invitrogen) was added in […] serum-free, antibiotic-free media to plate wells using a Thermo Scientific Matrix WellMate and Microplate Stacker. Plates were incubated for 45 min at room temperature to allow for the sufficient formation of siRNA-lipid complexes. Cells were seeded at a density of 1x10^4 cells per well in 20 microL media containing 20% (vol/vol) FBS without antibiotics. The final concentration of siRNA in each well was 100 nM. Cells were cultured for 48h at 37 degrees C in 5% CO2 before addition of […] of TLR ligand Pam3CSK4 for 5 hours. The medium was then removed, replaced with […] growth media and cell were transfected with […] of LipidA and TransIT-TKO (Mirus) for 24 hour. At the end of the LipidA treatment, […] of supernatant was transferred to a 384 Greiner Bio-one non-binding low volume plate and […] of IL-1a HTRF reagent (Cisbio, 62MIL1APEH) was added and incubated at room temperature overnight. The plates were read on an EnVision plate reader (PerkinElmer). Cell viability was measured by adding 20ul Cell Titer Glo to the original plate and running a luminescence read on the EnVision. The quantified IL-1a signal for each siRNA gene-targeted well was divided by the median of the negative control wells and multiplied by 100 to achieve a negative control normalized value for each well/siRNA. This normalized value was then used to generate a robust z-score by first taking the log of each value and then by subtracting the median and dividing by the […].

z-score, active:
GGAAAACAAACCACAGCCATT against Tpbpa -2.66
GGGUGCAUAUGUUUGAAGCTT against Copb2 -2.5
GGGUAGAAUGUGUGUGUCUTT against Abhd15 -2.52
GCCAGUAACCAGAAAAUUGTT against Sycp3 -2.01
GGAAGAGGCCAGCUAUAACTT against Dcaf1 -2.51
CGACAGAGGAAAACAUAAATT against St13 -2.55
GCAAGAAGCCUGCCAAUAUTT against Etd 2.05

z-score, inactive:
GCUGACUGCUAAAAUCCAGTT against Spc25 -0.0782
GCUAGGUGAUCAGAGAACUTT against Nsl1 0.222
GGAGCUUGACAUUCUGGAATT against Tmco4 0.766
GGCUAGGAGAGUCUCCCUUTT against Rfx1 -0.556
GCAACUCUACUUGUCAAUUTT against Lypd8 0.894
GGUGGACAAGACAAGCAUCTT against Ilvbl -0.264
GGAGAAAAUUGUCAAGAAGTT against Ift122 -0.824
GGAACAUUGGCAUCACGACTT against Acy1 0.901
GCCCAAAGGUUCGUAAGGUTT against Rpl7 1.01
CCAGUUCUUAACAUUGUGUTT against Syap1 -1.13
GCUAGCAACAUCAUUGAUGTT against Lamtor1 -0.747
GGAGUGUGAAGAGAUACAGTT against C9 0.493
GGAUUCUCCAGACACCUUGTT against Styxl1 -0.704
GGGUAACAGAUACUGUUAUTT against Orai2 0.554
GGACAAGAAAAAAAACCUGTT against Mrvi1 -0.113
GGAAGACAAGGUUUUAGCUTT against Ulbp1 1.92
GGUCAAACAGGAAGACAGATT against Ubc 0.645
GGGUCUCAGCAGUGCAAACTT against Txnip -0.486
GGUCUUAACUGUGAACAACTT against Dner 0.492
GGUUAUUGGCACUUUUAGATT against Ect2 0.0504
GGUACUAAACACCAACUCCTT against Cd300a 0.694
CCAGCUAGUGAUGUCAAAATT against Bri3bp -0.0406
UGAGGAGAGUUUCCGAGUGTT against H2-Q6 -0.0985
GGAAAAAAAGGACAUUUCATT against Osmr 1.54
GGACGUGGUGAAGUUUUAUTT against Folr2 1.59
GGGUGGUGGCAUUAAACUUTT against Stk36 1.75
GGGCUAUGUGCUCUUUUGUTT against S1pr4 0.688
GGACAAAGAGGAAUGGAUATT against Tank -1.19
GGCUAUAAAAAGAAGUACCTT against Pdgfrb 1.63
CCAAUCUGCACCCUAUGUCTT against Cs -1.11
CCAAGAUUAACCAUAACACTT against Mrpl50 0.017
GCAACUCUUAUUUGGAUGCTT against Dbpht1 0.489
GGAUGGUUGUGAGGAUUACTT against Paip1 0.483
GGCAAAAUAACUGACUUCATT against Rps4x 0.315
GGAUGCUAGACAAGAAUCCTT against Camkk1 -0.654
GCUUACCAAAGGCUAUUUGTT against Anxa13 -0.108
GGAAAUGAUCCAUCAACUCTT against Rxfp1 0.541
GCUCAAAUCUAAUAAGGACTT against Cdh3 -0.053
GGUGGAGACCCUGAUAAGUTT against Anks4b -0.393
GGAACAACCUUAUACUACCTT against Rcl1 0.903
GGACACACAUGGAAACUGGTT against Nr2f6 -0.965
GGCCGUACUAGAUUUUCUUTT against Olfr695 1.35
GGUUUUCCAGAGAAACCACTT against Rhox7a 0.505
GGGCAUGGACAAAAUUCUCTT against Cct2 1.68
GCUUUCUUGAGAUUACUCATT against Zcchc17 -1.53
GCCCUUACGUGGUAAAACCTT against Fndc3c1 0.0746
GGCAAUAGCUACACCUUCATT against Csf1r 1.9

For reference, some entries already given.
z-score, inactive:
GGGCUAUGUGCUCUUUUGUTT against S1pr4 0.688
GGACAAAGAGGAAUGGAUATT against Tank -1.19
